Results: PubChem BioAssay AID200 (DTP/NCI, 2004)
The list does not hold the whole screen: it is rich in T/C values a quarter to a half above the control, in often repeated tests (any T/C) and in doses without a T/C. Further doses and runs are listed elsewhere. T/C: endpoint of the treated group in % of that of the vehicle group. Some doses have a count of surviving animals in place of a T/C: the source holds a T/C of zero for them, seemingly a mark for toxic or unscored doses. Some survivor counts are full or nearly so, which does not show that the dose was tolerated: the source hardly ever lists a survival T/C far under the control, and the zero likely stands for such cases as well. Counts of survivors are from the toxicity check (mostly the fifth day) where no day follows; animals may have died later. Schedule codes are those of the source, taken here to give the interval after Q, in days (D) or hours (H), and the number of doses after X. Some entries hold several experiments; the values are given in rising order. For survival time, the PubChem record calls one and a half times the control and up active, and a quarter to a half above the control has no call in these data; cut-offs in other NCI protocols can differ. Brackets with × count equal records among those shown. Some T/C values carry the count of animals alive at the toxicity check (mostly the fifth day); without a count, all were alive then. Where a SMILES comes first, the peptide text is derived from it.

Test system: B6C3F1 mice, B16 melanoma ip, median survival T/C
Test: NCI In Vivo Anticancer Drug Screen. Data for tumor model B16 Melanoma (intraperitoneal) in B6C3F1 mice
Details: T/C endpoint: median survival time, higher T/C = longer survival
Outline: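 Readout: survival or tumor size in treated mice relative to vehicle controls (T/C). Model uses transplantable tumors grown in mice.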

[1] = dose: 50.0 mg/kg/injection, schedule: Q01DX009 (ip), vehicle: saline
[2] = dose: 100.0 mg/kg/injection, schedule: Q01DX009 (ip), vehicle: saline with Tween-80
[3] = dose: 400.0 mg/kg/injection, schedule: Q01DX009 (ip), vehicle: Klucel (hydroxypropylcellulose) (HPC)
[4] = dose: 50.0 mg/kg/injection, schedule: Q01DX009 (ip), vehicle: saline with Tween-80
[5] = dose: 200.0 mg/kg/injection, schedule: Q01DX009 (ip), vehicle: saline with Tween-80
[6] = dose: 400.0 mg/kg/injection, schedule: Q01DX009 (ip), vehicle: saline
[7] = dose: 12.5 mg/kg/injection, schedule: Q01DX009 (ip), vehicle: saline with Tween-80
[8] = dose: 4.0 mg/kg/injection, schedule: Q01DX009 (ip), vehicle: water
[9] = dose: 25.0 mg/kg/injection, schedule: Q01DX009 (ip), vehicle: saline with Tween-80
[10] = dose: 0.06 mg/kg/injection, schedule: Q01DX009 (ip), vehicle: DMSO
[11] = dose: 0.5 mg/kg/injection, schedule: Q01DX009 (ip), vehicle: DMSO

Q: Which T/C (dose: 12.5 mg/kg/injection, schedule: Q01DX009 (ip), vehicle: Klucel (hydroxypropylcellulose) (HPC)) does the source give for `Nc1ncnc2c1nnn2C1OC(CO)C(O)C1O` (stereo not given) here?
A: 127 % of control [9 of 10 alive]

Q: What about the T/C (dose: 24.0 mg/kg/injection, schedule: Q01DX009 (ip), vehicle: Klucel (hydroxypropylcellulose) (HPC)) of the same compound?
A: 129 % of control

Q: What about the survivor count (dose: 48.0 mg/kg/injection, schedule: Q01DX009 (ip), vehicle: Klucel (hydroxypropylcellulose) (HPC)) of the same compound?
A: 10 of 10

Q: What about the survivor count (dose: 50.0 mg/kg/injection, schedule: Q01DX009 (ip), vehicle: Klucel (hydroxypropylcellulose) (HPC)) of the same compound?
A: 9 of 10

Q: And the survivor count (dose: 100.0 mg/kg/injection, schedule: Q01DX009 (ip), vehicle: Klucel (hydroxypropylcellulose) (HPC))?
A: 8 of 10

Q: And the survivor count (dose: 200.0 mg/kg/injection, schedule: Q01DX009 (ip), vehicle: Klucel (hydroxypropylcellulose) (HPC))?
A: 0 of 10

Q: Which survivor count [1] does the source give for `CSC(SC)=C1C(=O)NC(=O)NC1=O` here?
A: 5 of 10

Q: With `CC1c2ccccc2CC(CCN(C)C)c2ccccc21` (stereo not given) as the compound, how does the survivor count [2] read?
A: 5 of 10

Q: Which survivor count [2] does the source give for `[I][Hg][CH2]C1COC([CH2][Hg][I])CO1` (stereo not given) here?
A: 3 of 10

Q: For `O=C1CC2(C(=O)N1CN1CCCCC1)c1ccccc1-c1ccccc12`, which survivor count [3] is on record?
A: 10 of 10

Q: With `CCCCC(NC(=O)OCc1ccccc1)C(=O)NC(Cc1c[nH]c2ccccc12)C(=O)O` (stereo not given) as the compound, how does the survivor count [3] read?
A: 2 of 10

Q: Which results are given for `OC1COC(c2ccccc2)OC1C1OC(c2ccccc2)OC2COC(c3ccccc3)OC21` (stereo not given)?
A: survivor count [4]: 10 of 10; survivor count [2]: 10 of 10; survivor count [5]: 10 of 10

Q: How did the survivor count (dose: 40.0 mg/kg/injection, schedule: Q01DX009 (ip), vehicle: saline) turn out when `Cc1c2ccccc2cc2cccc[n+]12` was run?
A: 10 of 10

Q: What about the survivor count (dose: 80.0 mg/kg/injection, schedule: Q01DX009 (ip), vehicle: saline) of the same compound?
A: 0 of 10

Q: `O=c1nc(Oc2ccccc2)nc2ncccn12` was tested. Which T/C (dose: 6.25 mg/kg/injection, schedule: Q01DX009 (ip), vehicle: saline with Tween-80, evaluated on day 45) did it give?
A: 109 % of control

Q: What about the T/C (dose: 6.25 mg/kg/injection, schedule: Q01DX009 (ip), vehicle: saline with Tween-80, evaluated on day 60) of the same compound?
A: 90, 101, 108 % of control

Q: What about the T/C (dose: 12.5 mg/kg/injection, schedule: Q01DX009 (ip), vehicle: saline with Tween-80, evaluated on day 45) of the same compound?
A: 116 % of control

Q: And the T/C (dose: 12.5 mg/kg/injection, schedule: Q01DX009 (ip), vehicle: saline with Tween-80, evaluated on day 60)?
A: 101, 106, 113 % of control

Q: What about the T/C (dose: 25.0 mg/kg/injection, schedule: Q01DX009 (ip), vehicle: saline with Tween-80, evaluated on day 45) of the same compound?
A: 114 % of control [9 of 10 alive]

Q: And the T/C (dose: 25.0 mg/kg/injection, schedule: Q01DX009 (ip), vehicle: saline with Tween-80, evaluated on day 60)?
A: 106 [9 of 10 alive], 112 [8 of 10 alive], 124 % of control

Q: What about the T/C (dose: 50.0 mg/kg/injection, schedule: Q01DX009 (ip), vehicle: saline with Tween-80, evaluated on day 45) of the same compound?
A: 146 % of control [8 of 10 alive]

Q: What about the T/C (dose: 50.0 mg/kg/injection, schedule: Q01DX009 (ip), vehicle: saline with Tween-80, evaluated on day 60) of the same compound?
A: 125 and 140 % of control

Q: What about the survivor count [4] of the same compound?
A: 0 of 10

Q: And the survivor count [2]?
A: 0 of 10, 1 of 10, 3 of 10, 4 of 10

Q: Which T/C [6] does the source give for `NCC(=O)NC(Cc1ccc(O)cc1)C(=O)O` (stereo not given) (HELM PEPTIDE1{G.[O=C(O)C(Cc1ccc(O)cc1)N[*:1]]}$$$$V2.0) here?
A: 125 % of control

Q: `O=C(NC1CCCCC1)OCc1c(COC(=O)NC2CCCCC2)c(-c2ccc(Cl)c(Cl)c2)n2c1CCC2` was tested. Which T/C [7] did it give?
A: 135 % of control

Q: And the survivor count (dose: 400.0 mg/kg/injection, schedule: Q01DX009 (ip), vehicle: saline with Tween-80)?
A: 10 of 10

Q: For `CCN(CC)CCC(=O)c1ccccc1`, which survivor count (dose: 100.0 mg/kg/injection, schedule: Q01DX009 (ip), vehicle: suspension in saline) is on record?
A: 1 of 10

Q: What does the source list for `O=NNc1cnccn1`?
A: T/C (dose: 12.5 mg/kg/injection, schedule: Q01DX009 (ip), vehicle: water): 132 % of control (2×); survivor count (dose: 50.0 mg/kg/injection, schedule: Q01DX009 (ip), vehicle: water): 10 of 10

Q: Which results are given for `CC(C)(C[NH-])C[NH-].[Cl][Pt+2][Cl]`?
A: T/C (dose: 0.25 mg/kg/injection, schedule: Q01DX009 (ip), vehicle: water): 135 % of control; T/C (dose: 0.5 mg/kg/injection, schedule: Q01DX009 (ip), vehicle: water): 149 % of control; T/C (dose: 0.5 mg/kg/injection, schedule: Q04DX003 (ip), vehicle: water): 127 % of control; T/C (dose: 1.0 mg/kg/injection, schedule: Q01DX009 (ip), vehicle: water): 144 and 147 % of control; T/C (dose: 1.0 mg/kg/injection, schedule: Q04DX003 (ip), vehicle: water): 141 % of control; survivor count (dose: 2.0 mg/kg/injection, schedule: Q01DX009 (ip), vehicle: water): 10 of 10; survivor count [8]: 10 of 10

Q: `Cc1ccccc1N(CC1CO1)CC1CO1` (stereo not given) was tested. Which survivor count [6] did it give?
A: 3 of 10

Q: Which survivor count (dose: 6.0 mg/kg/injection, schedule: Q01DX009 (ip), vehicle: saline with Tween-80) does the source give for `Cc1cc2c(C(C)C)c(O)c(O)c(C=O)c2c(O)c1-c1c(C)cc2c(C(C)C)c(O)c(O)c(C=O)c2c1O` here?
A: 10 of 10

Q: And the survivor count (dose: 6.25 mg/kg/injection, schedule: Q01DX009 (ip), vehicle: saline with Tween-80)?
A: 10 of 10

Q: What about the survivor count [7] of the same compound?
A: 10 of 10

Q: What about the survivor count [9] of the same compound?
A: 1 of 10

Q: What about the survivor count [4] of the same compound?
A: 0 of 10

Q: And the survivor count [2]?
A: 0 of 10

Q: For `O=C1c2c(O)cccc2-c2nn(CCNCCO)c3ccc(NCCNCCO)c1c23`, which survivor count (dose: 11.0 mg/kg/injection, schedule: Q01DX009 (ip), vehicle: water) is on record?
A: 10 of 10

Q: And the survivor count (dose: 22.0 mg/kg/injection, schedule: Q01DX009 (ip), vehicle: water)?
A: 10 of 10

Q: What about the survivor count (dose: 44.0 mg/kg/injection, schedule: Q01DX009 (ip), vehicle: water) of the same compound?
A: 7 of 8

Q: Which results are given for `COc1cc([C@@H]2c3cc4c(cc3[C@H](OC3OC5COC(c6ccccc6)OC5C(O)C3O)[C@H]3COC(=O)[C@H]23)OCO4)cc(OC)c1OC` (stereo not given in full)?
A: T/C [7]: 137 and 143 % of control; T/C [9]: 146 % of control; survivor count [2]: 10 of 10; survivor count [5]: 9 of 10

Q: For `O=C(O)c1cc(C(=O)O)c(C(=O)O)cc1C(=O)O.[NH2-].[NH2-].[NH2-].[NH2-].[Pt+2].[Pt+2]`, which T/C [8] is on record?
A: 134 % of control

Q: How did the survivor count (dose: 0.03 mg/kg/injection, schedule: Q01DX009 (ip), vehicle: DMSO) turn out when `C/C=C/C=C/c1cc2cc3c(c(O)c2c(=O)[nH]1)C1(CC3)C(O)=c2c(=O)c3c(=O)cc(OC)c(=O)c=3c(=O)c2=C1O` (stereo not given) was run?
A: 10 of 10

Q: What about the T/C [10] of the same compound?
A: 106 and 122 % of control

Q: And the survivor count [10]?
A: 10 of 10

Q: What about the T/C (dose: 0.12 mg/kg/injection, schedule: Q01DX009 (ip), vehicle: DMSO) of the same compound?
A: 90, 110, 117 % of control

Q: What about the T/C (dose: 0.25 mg/kg/injection, schedule: Q01DX009 (ip), vehicle: DMSO) of the same compound?
A: 107 [9 of 10 alive], 119, 135 % of control [6 of 7 alive]

Q: What about the T/C [11] of the same compound?
A: 123 % of control

Q: What about the survivor count [11] of the same compound?
A: 6 of 10 and 10 of 10

Q: And the survivor count (dose: 1.0 mg/kg/injection, schedule: Q01DX009 (ip), vehicle: DMSO)?
A: 0 of 10, 6 of 10, 7 of 10

Q: And the survivor count (dose: 2.0 mg/kg/injection, schedule: Q01DX009 (ip), vehicle: DMSO)?
A: 0 of 10 and 1 of 10

Q: And the T/C (dose: 3.0 mg/kg/injection, schedule: Q01DX009 (ip), vehicle: Klucel (hydroxypropylcellulose) (HPC))?
A: 128 % of control

Q: What about the survivor count (dose: 4.0 mg/kg/injection, schedule: Q01DX009 (ip), vehicle: DMSO) of the same compound?
A: 0 of 10

Q: What about the T/C (dose: 6.0 mg/kg/injection, schedule: Q01DX009 (ip), vehicle: Klucel (hydroxypropylcellulose) (HPC)) of the same compound?
A: 133 % of control

Q: And the survivor count (dose: 8.0 mg/kg/injection, schedule: Q01DX009 (ip), vehicle: DMSO)?
A: 0 of 10

Q: What about the T/C (dose: 12.0 mg/kg/injection, schedule: Q01DX009 (ip), vehicle: Klucel (hydroxypropylcellulose) (HPC)) of the same compound?
A: 133 % of control

Q: How did the survivor count [1] turn out when `NCCSC(C[N+](=O)[O-])c1ccccc1Cl` (stereo not given) was run?
A: 6 of 10

Q: What about the survivor count (dose: 100.0 mg/kg/injection, schedule: Q01DX009 (ip), vehicle: saline) of the same compound?
A: 0 of 10
